Data from publication PMC5519928 (Biopolymers, 2017).
Some peptides are written in HELM: one residue between dots, names in brackets for other building blocks, links after the first $. The same purity stands for every peptide and may come from a single statement.

experiment: general procedure: peptide synthesis; Fmoc-protected Rink Amide resin (loading 0.54 mmol g^-1); DIC (bromoacetic acid, sub-monomer method); settings: whole synthesis, 220 nm, scale of the general procedure 0.1 mmol

Final HPLC purity, >95%:
PEPTIDE1{[NLys].[Nspe].[Nspe].[NLys].[Nspe].[Nspe].[NLys].[Nspe].[Nspe].[NLys].[Nspe].[Nspe].[am]}$$$$V2.0
PEPTIDE1{[NLys].[Nspe].[Nspe].[NLys].[Nspe].[Nspe].[NLys].[Nspe].[Nspe].[am]}$$$$V2.0
PEPTIDE1{[NLys].[Nspe].[Nspe].[NLys].[Nspe].[Nspe].[am]}$$$$V2.0
PEPTIDE1{[Nae].[Nphe].[Nphe].[Nae].[Nphe].[Nphe].[Nae].[Nphe].[Nphe].[Nae].[Nphe].[Nphe].[am]}$$$$V2.0
PEPTIDE1{[Nae].[Nspe].[Nspe].[Nae].[Nspe].[Nspe].[Nae].[Nspe].[Nspe].[Nae].[Nspe].[Nspe].[am]}$$$$V2.0
